Measurements as given in the supplement of paper PMC10849652.
The list shows a part of the results.

Sequences of proteins named here, by UniProt entry; tags and fusion partners are left off. A change or cut given only in a name is not applied to a line headed by its entry.
UniProt Q86YT6, whole entry, looked up: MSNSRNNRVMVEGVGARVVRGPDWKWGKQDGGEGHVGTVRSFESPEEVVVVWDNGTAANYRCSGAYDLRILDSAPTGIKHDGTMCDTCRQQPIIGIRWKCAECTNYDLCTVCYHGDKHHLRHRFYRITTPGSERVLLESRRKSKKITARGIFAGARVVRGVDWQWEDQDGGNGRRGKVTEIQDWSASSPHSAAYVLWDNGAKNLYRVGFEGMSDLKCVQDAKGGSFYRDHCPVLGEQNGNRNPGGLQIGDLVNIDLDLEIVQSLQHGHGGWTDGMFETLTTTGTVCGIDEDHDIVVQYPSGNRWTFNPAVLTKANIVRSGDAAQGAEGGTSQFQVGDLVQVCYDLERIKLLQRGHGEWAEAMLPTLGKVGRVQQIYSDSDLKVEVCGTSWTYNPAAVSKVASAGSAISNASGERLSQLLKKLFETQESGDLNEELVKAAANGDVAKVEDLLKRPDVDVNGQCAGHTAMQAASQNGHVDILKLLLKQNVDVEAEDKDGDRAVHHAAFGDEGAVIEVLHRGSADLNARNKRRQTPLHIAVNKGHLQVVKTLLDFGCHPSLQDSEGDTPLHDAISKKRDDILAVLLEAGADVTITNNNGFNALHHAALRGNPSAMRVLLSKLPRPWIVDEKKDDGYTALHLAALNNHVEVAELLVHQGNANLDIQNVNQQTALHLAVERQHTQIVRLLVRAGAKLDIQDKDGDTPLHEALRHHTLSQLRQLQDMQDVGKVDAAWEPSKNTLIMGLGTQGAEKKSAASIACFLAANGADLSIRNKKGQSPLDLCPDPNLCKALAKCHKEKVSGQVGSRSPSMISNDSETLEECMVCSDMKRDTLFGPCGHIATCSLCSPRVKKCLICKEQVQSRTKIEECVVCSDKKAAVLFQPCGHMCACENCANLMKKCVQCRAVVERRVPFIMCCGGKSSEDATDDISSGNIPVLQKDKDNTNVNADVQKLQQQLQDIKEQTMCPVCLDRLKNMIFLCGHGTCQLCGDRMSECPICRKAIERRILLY
UniProt Q5SR56: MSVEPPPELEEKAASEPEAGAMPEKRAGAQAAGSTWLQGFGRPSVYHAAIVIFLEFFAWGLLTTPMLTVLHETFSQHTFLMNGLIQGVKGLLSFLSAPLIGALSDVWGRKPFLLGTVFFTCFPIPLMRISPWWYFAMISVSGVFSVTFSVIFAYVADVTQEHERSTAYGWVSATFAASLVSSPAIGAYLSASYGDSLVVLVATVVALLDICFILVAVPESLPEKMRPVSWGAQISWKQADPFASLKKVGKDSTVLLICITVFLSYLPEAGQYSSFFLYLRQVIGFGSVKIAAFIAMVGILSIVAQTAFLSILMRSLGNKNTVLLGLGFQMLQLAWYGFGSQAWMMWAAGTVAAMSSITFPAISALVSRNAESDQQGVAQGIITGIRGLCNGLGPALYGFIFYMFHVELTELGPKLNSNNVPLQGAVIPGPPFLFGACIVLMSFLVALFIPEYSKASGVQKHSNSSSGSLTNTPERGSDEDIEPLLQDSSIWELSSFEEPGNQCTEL
UniProt Q12866: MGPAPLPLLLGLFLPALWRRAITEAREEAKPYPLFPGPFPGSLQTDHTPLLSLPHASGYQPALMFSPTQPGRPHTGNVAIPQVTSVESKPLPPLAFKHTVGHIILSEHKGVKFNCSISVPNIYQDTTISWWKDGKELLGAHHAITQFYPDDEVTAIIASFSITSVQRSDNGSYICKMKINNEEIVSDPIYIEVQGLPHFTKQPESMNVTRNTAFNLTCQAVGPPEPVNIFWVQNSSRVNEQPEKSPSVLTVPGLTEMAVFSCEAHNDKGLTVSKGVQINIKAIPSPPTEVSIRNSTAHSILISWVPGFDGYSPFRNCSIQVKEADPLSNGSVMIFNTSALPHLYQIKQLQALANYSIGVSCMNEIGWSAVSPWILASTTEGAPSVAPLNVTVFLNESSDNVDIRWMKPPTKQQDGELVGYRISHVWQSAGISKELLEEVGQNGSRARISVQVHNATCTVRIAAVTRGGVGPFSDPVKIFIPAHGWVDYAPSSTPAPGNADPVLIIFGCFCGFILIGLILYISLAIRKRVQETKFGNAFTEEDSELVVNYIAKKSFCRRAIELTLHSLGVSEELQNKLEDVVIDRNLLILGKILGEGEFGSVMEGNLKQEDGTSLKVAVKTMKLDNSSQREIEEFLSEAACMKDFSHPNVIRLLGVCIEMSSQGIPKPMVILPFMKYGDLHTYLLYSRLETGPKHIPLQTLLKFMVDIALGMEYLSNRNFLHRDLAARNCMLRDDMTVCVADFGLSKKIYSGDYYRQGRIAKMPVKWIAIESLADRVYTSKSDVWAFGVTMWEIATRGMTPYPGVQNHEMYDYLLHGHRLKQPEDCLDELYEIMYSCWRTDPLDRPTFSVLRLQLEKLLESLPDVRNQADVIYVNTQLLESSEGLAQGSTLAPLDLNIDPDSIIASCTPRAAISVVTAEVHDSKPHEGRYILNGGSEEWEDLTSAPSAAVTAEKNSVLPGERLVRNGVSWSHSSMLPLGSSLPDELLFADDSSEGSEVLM
UniProt A0JLT2: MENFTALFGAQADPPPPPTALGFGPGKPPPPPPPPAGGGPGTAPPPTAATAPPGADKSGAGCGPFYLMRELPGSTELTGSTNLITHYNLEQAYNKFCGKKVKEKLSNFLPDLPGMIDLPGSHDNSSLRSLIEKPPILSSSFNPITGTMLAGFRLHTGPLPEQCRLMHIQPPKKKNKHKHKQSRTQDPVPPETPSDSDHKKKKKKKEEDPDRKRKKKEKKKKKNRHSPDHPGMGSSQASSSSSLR
UniProt Q9BUT9: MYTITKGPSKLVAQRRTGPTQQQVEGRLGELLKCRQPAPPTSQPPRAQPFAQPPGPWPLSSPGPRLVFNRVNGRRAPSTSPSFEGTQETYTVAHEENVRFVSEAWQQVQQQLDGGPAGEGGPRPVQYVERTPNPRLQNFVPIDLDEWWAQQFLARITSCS
UniProt O75586: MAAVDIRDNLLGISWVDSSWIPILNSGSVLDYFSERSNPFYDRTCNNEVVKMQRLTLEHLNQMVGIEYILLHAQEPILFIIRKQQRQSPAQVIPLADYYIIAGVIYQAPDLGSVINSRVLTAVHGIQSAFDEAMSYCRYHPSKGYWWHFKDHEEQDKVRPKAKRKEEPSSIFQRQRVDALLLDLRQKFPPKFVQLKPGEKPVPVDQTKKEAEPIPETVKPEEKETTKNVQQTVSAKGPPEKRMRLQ
UniProt Q6P1Q9: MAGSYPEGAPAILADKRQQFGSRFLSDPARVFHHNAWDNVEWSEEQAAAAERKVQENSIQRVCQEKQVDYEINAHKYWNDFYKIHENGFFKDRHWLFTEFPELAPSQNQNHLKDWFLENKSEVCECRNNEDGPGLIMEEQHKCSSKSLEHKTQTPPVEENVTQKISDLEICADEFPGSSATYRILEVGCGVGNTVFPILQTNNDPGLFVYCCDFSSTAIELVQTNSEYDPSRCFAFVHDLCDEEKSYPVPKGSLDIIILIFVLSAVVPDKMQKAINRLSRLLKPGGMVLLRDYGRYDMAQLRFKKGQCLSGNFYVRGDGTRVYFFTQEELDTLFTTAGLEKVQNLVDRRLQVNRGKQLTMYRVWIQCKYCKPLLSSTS
UniProt Q9GZY8: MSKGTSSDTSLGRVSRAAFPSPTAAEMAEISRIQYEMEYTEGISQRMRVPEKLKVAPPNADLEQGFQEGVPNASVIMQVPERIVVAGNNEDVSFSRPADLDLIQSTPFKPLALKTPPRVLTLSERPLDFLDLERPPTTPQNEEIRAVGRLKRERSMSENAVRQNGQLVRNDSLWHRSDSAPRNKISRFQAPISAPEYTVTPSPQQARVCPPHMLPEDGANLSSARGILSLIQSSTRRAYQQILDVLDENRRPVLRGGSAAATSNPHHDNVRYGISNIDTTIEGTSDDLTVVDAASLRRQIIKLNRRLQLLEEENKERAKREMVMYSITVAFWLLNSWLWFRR
UniProt Q6N075: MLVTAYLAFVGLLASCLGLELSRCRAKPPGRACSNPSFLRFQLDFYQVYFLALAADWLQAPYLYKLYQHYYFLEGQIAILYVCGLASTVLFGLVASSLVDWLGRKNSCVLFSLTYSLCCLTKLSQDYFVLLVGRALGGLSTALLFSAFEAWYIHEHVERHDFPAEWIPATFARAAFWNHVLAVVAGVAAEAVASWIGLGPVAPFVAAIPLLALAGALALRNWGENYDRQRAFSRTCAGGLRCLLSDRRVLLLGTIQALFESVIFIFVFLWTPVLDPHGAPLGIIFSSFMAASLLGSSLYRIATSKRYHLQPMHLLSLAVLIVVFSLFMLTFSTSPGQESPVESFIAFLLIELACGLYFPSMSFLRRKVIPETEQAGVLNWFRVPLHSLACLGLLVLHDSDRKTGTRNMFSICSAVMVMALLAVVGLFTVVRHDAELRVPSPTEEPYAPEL
UniProt O43513: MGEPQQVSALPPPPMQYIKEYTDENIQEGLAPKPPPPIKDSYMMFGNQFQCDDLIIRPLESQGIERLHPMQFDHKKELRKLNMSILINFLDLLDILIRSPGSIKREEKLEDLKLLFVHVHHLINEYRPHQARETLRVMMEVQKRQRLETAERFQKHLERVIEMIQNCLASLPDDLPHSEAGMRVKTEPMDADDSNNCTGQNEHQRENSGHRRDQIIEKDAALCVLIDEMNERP
UniProt Q8NE86: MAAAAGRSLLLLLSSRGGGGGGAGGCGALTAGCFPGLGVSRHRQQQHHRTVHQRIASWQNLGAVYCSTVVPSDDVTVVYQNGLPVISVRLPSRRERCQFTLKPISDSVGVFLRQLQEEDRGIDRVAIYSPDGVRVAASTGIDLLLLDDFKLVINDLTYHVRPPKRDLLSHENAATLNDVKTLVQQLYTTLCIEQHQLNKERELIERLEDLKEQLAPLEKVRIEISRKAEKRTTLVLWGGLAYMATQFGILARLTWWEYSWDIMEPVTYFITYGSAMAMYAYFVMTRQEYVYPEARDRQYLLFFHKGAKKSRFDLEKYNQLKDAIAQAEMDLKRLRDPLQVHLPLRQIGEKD
UniProt Q14680: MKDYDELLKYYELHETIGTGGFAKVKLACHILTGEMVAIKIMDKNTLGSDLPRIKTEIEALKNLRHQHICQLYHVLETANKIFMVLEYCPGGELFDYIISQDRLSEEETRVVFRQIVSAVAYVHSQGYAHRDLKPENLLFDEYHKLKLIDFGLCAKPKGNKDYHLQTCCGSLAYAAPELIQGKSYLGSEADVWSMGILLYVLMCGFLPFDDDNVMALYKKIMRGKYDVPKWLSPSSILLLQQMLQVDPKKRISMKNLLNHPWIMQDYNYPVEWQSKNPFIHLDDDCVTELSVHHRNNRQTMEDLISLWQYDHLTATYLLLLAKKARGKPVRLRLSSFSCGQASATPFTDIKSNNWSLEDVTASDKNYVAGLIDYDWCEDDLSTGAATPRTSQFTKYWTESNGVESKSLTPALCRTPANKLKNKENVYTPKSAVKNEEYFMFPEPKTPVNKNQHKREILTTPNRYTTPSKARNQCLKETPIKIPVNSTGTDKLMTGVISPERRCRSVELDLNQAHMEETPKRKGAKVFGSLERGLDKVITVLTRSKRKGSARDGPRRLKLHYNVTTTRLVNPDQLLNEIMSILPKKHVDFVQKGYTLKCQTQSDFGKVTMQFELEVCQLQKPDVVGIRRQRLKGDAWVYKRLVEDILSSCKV
UniProt O14880: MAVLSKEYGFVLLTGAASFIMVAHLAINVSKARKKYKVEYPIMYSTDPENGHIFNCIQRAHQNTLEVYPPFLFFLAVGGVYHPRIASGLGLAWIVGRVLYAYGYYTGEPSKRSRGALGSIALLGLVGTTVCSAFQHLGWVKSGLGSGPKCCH
UniProt Q7L590: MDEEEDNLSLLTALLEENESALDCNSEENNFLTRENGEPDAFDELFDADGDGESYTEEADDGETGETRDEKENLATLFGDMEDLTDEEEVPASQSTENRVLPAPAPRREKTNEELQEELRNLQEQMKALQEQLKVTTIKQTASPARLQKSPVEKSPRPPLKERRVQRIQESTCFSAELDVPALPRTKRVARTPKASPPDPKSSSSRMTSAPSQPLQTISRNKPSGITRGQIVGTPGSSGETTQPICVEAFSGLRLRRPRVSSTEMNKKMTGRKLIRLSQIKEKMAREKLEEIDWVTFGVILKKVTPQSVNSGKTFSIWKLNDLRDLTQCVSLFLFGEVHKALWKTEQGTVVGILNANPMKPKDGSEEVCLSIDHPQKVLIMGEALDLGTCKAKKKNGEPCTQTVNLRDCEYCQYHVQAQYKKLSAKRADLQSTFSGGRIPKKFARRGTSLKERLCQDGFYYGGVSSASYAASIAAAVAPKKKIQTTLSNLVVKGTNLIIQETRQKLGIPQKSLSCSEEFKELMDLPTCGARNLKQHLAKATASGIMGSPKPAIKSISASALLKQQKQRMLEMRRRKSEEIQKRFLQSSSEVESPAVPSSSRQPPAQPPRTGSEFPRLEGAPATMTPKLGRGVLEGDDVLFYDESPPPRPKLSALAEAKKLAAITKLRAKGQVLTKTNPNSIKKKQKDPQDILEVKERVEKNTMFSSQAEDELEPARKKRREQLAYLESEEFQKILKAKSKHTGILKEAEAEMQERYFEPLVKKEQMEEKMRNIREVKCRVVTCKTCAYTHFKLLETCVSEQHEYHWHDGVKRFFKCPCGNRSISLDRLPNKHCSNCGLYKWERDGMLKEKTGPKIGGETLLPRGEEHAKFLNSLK

Assays:
Assay in all cases: log2 fold change, soluble protein after heating vs DMSO (PISA); higher = thermal stabilisation; K562 cells, 10 uM, 30 min; active = over 0.2 and 3.5 SD of the protein, either way, in both replicates (recomputed)
[1] = compound: COC1=CC=C(C=C1)CN2C=CC3=C2C=C(C=C3)C(=O)NO
Procedure, shortened: (§1)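 Aliquots of K562 cells (2×10^6 cells/mL) treated with 10 μM compound for 30 min were heated for 3 min over 48°C-58°C. After pooling and extraction in PBS with 0.5% NP-40 at 4°C, soluble protein from a 21,000xg, 90 min spin was quantified by TMTpro 16plex LC-MS/MS with channel sums equalised. Thermal stability is expressed against control samples, from duplicates, as a log2 fold change.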

filanesib = compound: CON(C)C(=O)N1N=C(c2cc(F)ccc2F)S[C@@]1(CCCN)c1ccccc1 [filanesib]
Procedure, shortened: as §1

zotarolimus = compound: CO[C@H]1C[C@@H]2CC[C@@H](C)[C@@](O)(O2)C(=O)C(=O)N2CCCC[C@H]2C(=O)O[C@H]([C@H](C)C[C@@H]2CC[C@H](n3cnnn3)[C@H](OC)C2)CC(=O)[C@H](C)/C=C(\C)[C@@H](O)[C@@H](OC)C(=O)[C@H](C)C[C@H](C)/C=C/C=C/C=C/1C [zotarolimus]
Procedure, shortened: as §1

idasanutlin = compound: COc1cc(C(=O)O)ccc1NC(=O)[C@@H]1N[C@@H](CC(C)(C)C)[C@](C#N)(c2ccc(Cl)cc2F)[C@H]1c1cccc(Cl)c1F [idasanutlin]
Procedure, shortened: as §1

alisertib = compound: COc1cc(Nc2ncc3c(n2)-c2ccc(Cl)cc2C(c2c(F)cccc2OC)=NC3)ccc1C(=O)O [alisertib]
Procedure, shortened: as §1

[2] = compound: COc1cccc2cc(-c3nc([C@H]4CC[C@H](C(=O)O)CC4)n4ncnc(N)c34)[nH]c12
Procedure, shortened: as §1

pictilisib = compound: CS(=O)(=O)N1CCN(Cc2cc3nc(-c4cccc5[nH]ncc45)nc(N4CCOCC4)c3s2)CC1 [pictilisib]
Procedure, shortened: as §1

[3] = compound: CS(=O)(=O)c1ccc(-c2cnc(N)c(C(=O)Nc3ccccc3)n2)cc1
Procedure, shortened: as §1

crizotinib = compound: C[C@@H](Oc1cc(-c2cnn(C3CCNCC3)c2)cnc1N)c1c(Cl)ccc(F)c1Cl [crizotinib]
Procedure, shortened: as §1

[4] = compound: C[C@@H]1COCCN1C2=NC(=NC(=C2)C3(CC3)S(=O)(=O)C)C4=C5C=CNC5=CC=C4
Procedure, shortened: as §1

[5] = compound: C[C@H](C1=CC=C(C=C1)C(=O)NC2=C3C=CNC3=NC=C2)N
Procedure, shortened: as §1

gandotinib = compound: Cc1cc(Nc2cc(CN3CCOCC3)c3nc(C)c(Cc4ccc(Cl)cc4F)n3n2)n[nH]1 [gandotinib]
Procedure, shortened: as §1

tozasertib = compound: Cc1cc(Nc2cc(N3CCN(C)CC3)nc(Sc3ccc(NC(=O)C4CC4)cc3)n2)n[nH]1 [tozasertib]
Procedure, shortened: as §1

doramapimod = compound: Cc1ccc(-n2nc(C(C)(C)C)cc2NC(=O)Nc2ccc(OCCN3CCOCC3)c3ccccc23)cc1 [doramapimod]
Procedure, shortened: as §1

ispinesib = compound: Cc1ccc(C(=O)N(CCCN)[C@@H](c2nc3cc(Cl)ccc3c(=O)n2Cc2ccccc2)C(C)C)cc1 [ispinesib]
Procedure, shortened: as §1

[6] = compound: COc1cc2nc(-c3cc(F)ccc3O)nc(N[C@@H]3CNC[C@H]3C(C)(C)O)c2cc1OC
Procedure, shortened: as §1

gefitinib = compound: COc1cc2ncnc(Nc3ccc(F)c(Cl)c3)c2cc1OCCCN1CCOCC1 [gefitinib]
Procedure, shortened: as §1

lapatinib = compound: CS(=O)(=O)CCNCc1ccc(-c2ccc3ncnc(Nc4ccc(OCc5cccc(F)c5)c(Cl)c4)c3c2)o1 [lapatinib]
Procedure, shortened: as §1

duvelisib = compound: C[C@H](Nc1ncnc2nc[nH]c12)c1cc2cccc(Cl)c2c(=O)n1-c1ccccc1 [duvelisib]
Procedure, shortened: as §1

[7] = compound: Cc1cc(SCc2sc(-c3ccc(C(F)(F)F)cc3)nc2C)ccc1OCC(=O)O
Procedure, shortened: as §1

Measured: log2 fold change

MIB1 (UniProt Q86YT6)
inactive: [1] -0.298 | filanesib 0.048 | zotarolimus 0.208 | idasanutlin 0.039 | alisertib -0.016 | [2] 0.21 | pictilisib -0.016 | [3] -0.108 | crizotinib -0.12 | [4] 0.058 | [5] 0.068 | gandotinib 0.025 | tozasertib 0.048 | doramapimod 0.124 | ispinesib -0.129

MFSD14B (UniProt Q5SR56)
inactive: [1] 0.039 | filanesib 0.066 | zotarolimus -0.03 | idasanutlin 0.035 | alisertib -0.125 | [6] -0.013 | gefitinib -0.017 | [2] 0.214 | lapatinib 0.04 | [3] 0.059 | crizotinib 0.027 | [4] -0.261 | [5] -0.083 | duvelisib 0.12 | tozasertib 0.051 | [7] 0.051 | doramapimod -0.065

MERTK (UniProt Q12866)
inactive: [1] -0.021 | filanesib -0.158 | zotarolimus -0.025 | idasanutlin -0.026 | alisertib -0.074 | [6] -0.059 | gefitinib 0.059 | [2] 0.015 | lapatinib 0.127 | [3] 0.067 | crizotinib -0.106 | [4] -0.161 | [5] -0.067 | duvelisib 0.082 | tozasertib -0.048 | [7] -0.174

MFHAS1 (UniProt Q9Y4C4)
inactive: [1] 0.323 | zotarolimus -0.017 | idasanutlin -0.115 | alisertib -0.051 | [2] 0.023 | pictilisib 0.115 | crizotinib 0.17 | [5] -0.034 | duvelisib 0 | gandotinib 0.05 | tozasertib -0.284 | [7] -0.143 | doramapimod 0.126 | ispinesib 0.161

Two successive records out of the list so far, for reference:
MFSD14B (UniProt Q5SR56)
inactive: [1] 0.039 | filanesib 0.066 | zotarolimus -0.03 | idasanutlin 0.035 | alisertib -0.125 | [6] -0.013 | gefitinib -0.017 | [2] 0.214 | lapatinib 0.04 | [3] 0.059 | crizotinib 0.027 | [4] -0.261 | [5] -0.083 | duvelisib 0.12 | tozasertib 0.051 | [7] 0.051 | doramapimod -0.065

MERTK (UniProt Q12866)
inactive: [1] -0.021 | filanesib -0.158 | zotarolimus -0.025 | idasanutlin -0.026 | alisertib -0.074 | [6] -0.059 | gefitinib 0.059 | [2] 0.015 | lapatinib 0.127 | [3] 0.067 | crizotinib -0.106 | [4] -0.161 | [5] -0.067 | duvelisib 0.082 | tozasertib -0.048 | [7] -0.174

Additional entries:

MBOAT1 (UniProt Q6ZNC8)
inactive: [1] -0.121 | filanesib -0.245 | zotarolimus 0.015 | idasanutlin -0.149 | [6] 0.033 | gefitinib 0.011 | lapatinib -0.008 | [3] 0.065 | crizotinib 0.015 | [4] 0.087 | [5] -0.071 | duvelisib 0.059 | tozasertib 0.079 | [7] -0.036 | doramapimod -0.029 | ispinesib -0.423

MED19 (UniProt A0JLT2)
inactive: [1] 0.365 | filanesib 0.437 | alisertib -0.052 | gefitinib -0.118 | [2] -0.132 | pictilisib 0.415 | [3] 0.117 | crizotinib -0.536 | [4] -0.084 | gandotinib -0.154 | doramapimod 0.013 | ispinesib -0.069

MCRIP2 (UniProt Q9BUT9)
inactive: [1] -0.059 | filanesib 0.101 | zotarolimus 0.192 | [6] -0.004 | lapatinib -0.074 | pictilisib 0.08 | [3] 0.106 | crizotinib -0.003 | [4] 0.192 | [5] -0.079 | duvelisib -0.165 | gandotinib -0.026 | tozasertib 0.135 | [7] 0.054 | doramapimod 0.067 | ispinesib 0.164

MED6 (UniProt O75586)
inactive: [1] 0.183 | filanesib -0.189 | zotarolimus 0.036 | alisertib -0.005 | gefitinib -0.105 | [2] 0.126 | pictilisib 0.066 | [3] -0.178 | crizotinib -0.469 | [4] -0.296 | [5] -0.143 | gandotinib -0.087 | doramapimod -0.135

MFN2 (UniProt O95140)
active: [6] -0.438
inactive: [1] 0.04 | filanesib -0.112 | zotarolimus 0.016 | idasanutlin 0 | alisertib -0.043 | gefitinib 0.01 | [2] -0.006 | lapatinib 0.027 | pictilisib -0.058 | [3] 0.028 | crizotinib -0.109 | [4] 0 | [5] 0.022 | gandotinib 0.028 | [7] 0.041 | doramapimod 0.039 | ispinesib -0.208

METTL2B (UniProt Q6P1Q9)
inactive: [1] -0.169 | filanesib -0.054 | zotarolimus 0.06 | idasanutlin 0.036 | alisertib 0.139 | [2] -0.16 | pictilisib -0.014 | [3] 0.076 | crizotinib -0.235 | [4] 0.117 | [5] 0.09 | duvelisib -0.048 | gandotinib -0.229 | [7] 0.083 | doramapimod 0.124 | ispinesib -0.164

MFF (UniProt Q9GZY8)
inactive: [1] 0.038 | filanesib 0.075 | zotarolimus -0.022 | idasanutlin 0.053 | alisertib 0.024 | [6] -0.141 | gefitinib 0.012 | [2] 0.128 | lapatinib -0.061 | pictilisib 0.103 | [3] -0.03 | crizotinib -0.051 | [4] -0.052 | [5] -0.023 | gandotinib -0.036 | [7] -0.085 | doramapimod -0.018 | ispinesib -0.088

MBLAC1 (UniProt A4D2B0)
inactive: [1] 0.11 | zotarolimus 0.008 | idasanutlin 0.056 | alisertib -0.161 | [6] -0.064 | [2] 0.086 | lapatinib 0.01 | pictilisib 0.043 | crizotinib 0.038 | [5] -0.007 | gandotinib -0.056 | [7] -0.017 | doramapimod 0.169 | ispinesib -0.142

MFSD5 isoform 2 (UniProt Q6N075)
inactive: [1] 0.037 | filanesib 0.018 | zotarolimus -0.149 | idasanutlin -0.058 | alisertib 0.011 | [6] -0.026 | gefitinib 0.039 | [2] 0.12 | lapatinib 0.045 | pictilisib 0.062 | [3] 0.069 | crizotinib -0.039 | [4] -0.04 | [5] -0.046 | gandotinib -0.045 | [7] -0.004 | doramapimod 0.004 | ispinesib 0.051

MED7 (UniProt O43513)
inactive: [1] -0.021 | filanesib -0.01 | zotarolimus 0.07 | idasanutlin -0.159 | [6] -0.049 | gefitinib -0.022 | lapatinib -0.116 | [3] -0.03 | crizotinib 0.11 | [4] -0.031 | [5] -0.081 | [7] 0.049 | doramapimod -0.199 | ispinesib 0.017

MCU (UniProt Q8NE86)
inactive: [1] -0.056 | filanesib -0.152 | zotarolimus 0.164 | idasanutlin -0.091 | alisertib -0.053 | [6] -0.053 | gefitinib -0.049 | [2] 0.054 | lapatinib -0.099 | pictilisib 0.09 | [3] -0.013 | crizotinib -0.159 | [4] 0.015 | [5] 0.001 | gandotinib -0.172 | [7] 0.054 | doramapimod -0.013 | ispinesib -0.1

MELK (UniProt Q14680)
inactive: [1] 0.072 | filanesib -0.116 | zotarolimus -0.019 | idasanutlin 0.061 | gefitinib 0.253 | lapatinib -0.006 | pictilisib -0.079 | [3] 0.109 | crizotinib -0.128 | [4] -0.099 | [5] 0.054 | gandotinib -0.046 | [7] -0.047 | doramapimod -0.011
active: [6] -3.59

MGST3 (UniProt O14880)
inactive: [1] -0.021 | filanesib -0.035 | zotarolimus -0.005 | idasanutlin 0.012 | alisertib 0.008 | [6] 0.001 | gefitinib 0.002 | [2] 0.018 | lapatinib -0.009 | pictilisib 0.004 | [3] 0.058 | crizotinib 0.119 | [4] -0.013 | [5] -0.075 | gandotinib -0.006 | [7] -0.054 | doramapimod -0.031 | ispinesib 0.03

MCM10 (UniProt Q7L590)
inactive: [1] 0.303 | filanesib -0.192 | alisertib -0.097 | [6] -0.103 | gefitinib -0.014 | [2] 0.1 | lapatinib 0.204 | pictilisib -0.118 | [3] -0.171 | crizotinib -0.015 | [4] -0.102 | gandotinib 0.092 | doramapimod -0.01
